These are yes or no findings as the source states them, for the method shown. Some binding calls cover weakened binding; strength is not graded here.
What was measured:
[1] = target: T1, recombinant soluble human IL-6R (human, UniProt P08887 20-365); assay: gp130 ELISA (blocking): plate coated with human gp130; binder mixed with human IL-6 and human sIL-6R; bound IL-6R detected with biotinylated anti-IL-6R BAF227; blocked: binding of the IL-6/sIL-6R complex to gp130
T1 sequence: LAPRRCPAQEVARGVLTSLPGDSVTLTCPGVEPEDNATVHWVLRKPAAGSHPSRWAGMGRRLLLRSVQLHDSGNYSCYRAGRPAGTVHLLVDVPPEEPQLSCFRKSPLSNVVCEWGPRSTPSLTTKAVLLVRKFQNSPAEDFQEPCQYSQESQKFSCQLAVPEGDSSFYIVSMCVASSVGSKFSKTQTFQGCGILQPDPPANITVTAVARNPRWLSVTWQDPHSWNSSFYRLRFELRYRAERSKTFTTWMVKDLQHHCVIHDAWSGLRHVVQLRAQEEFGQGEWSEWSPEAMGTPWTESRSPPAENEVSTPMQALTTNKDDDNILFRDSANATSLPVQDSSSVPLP

[2] = target: cynomolgus monkey soluble IL-6R (from cynomolgus monkey serum) (cynomolgus monkey); assay: summary table, column 'Binds cyno monkey sIL-6R'
[3] = target: cynomolgus monkey soluble IL-6R (from cynomolgus monkey serum) (cynomolgus monkey); assay: anti-cynomolgus monkey IL-6R gp130 ELISA (blocking): plate coated with human gp130; binder mixed with human IL-6 and diluted cynomolgus monkey serum as the source of sIL-6R; bound IL-6R detected with BAF227; blocked: binding of the human IL-6/cyno sIL-6R complex to human gp130
[4] = target: T1, recombinant soluble human IL-6R; assay: gp130 ELISA (blocking), human arm of the cynomolgus cross-reactivity assay: plate coated with human gp130; binder mixed with human IL-6 and recombinant human sIL-6R; bound IL-6R detected with BAF227; blocked: binding of the IL-6/sIL-6R complex to gp130
[5] = target: cynomolgus monkey soluble IL-6R (from cynomolgus monkey serum) (cynomolgus monkey); assay: anti-cynomolgus IL-6R gp130 ELISA
[6] = target: cynomolgus monkey soluble IL-6R (from cynomolgus monkey serum) (cynomolgus monkey); assay: cynomolgus monkey IL-6R competition assay

Measured: binding

B1: 3C12 (VHH)
VHH: EVQLVESGGGLAQLGGSLRLSCVASGNIFSSNTAGWFRQAPGKQREWVAGISIGGMPAYADSVKGRFTISRDNAKNTVYLQMNSLKPEDTAVYYCATGGTEYDYWGQGTQVTVSS
notes: Llama ICVD from library 37-3, produced in E. coli; also called VIL-3C12; not shown: C-terminal Flag and 6xHis tags from vector pMEK222
binds: [1] | [2] | [3] | [4]

B2: 4D3 (VHH)
VHH: EVQLVESGGGSVQAGESLTLSCVASISTFSQNAMGWFRQAAGKRRESVARISSSGNVGYTDAVKGRFTMSRDNAKKTVYLQMNSLKPEDTAVYYCNAYSMSGELAAPWGQGTQVTVSS
notes: Llama ICVD from library 46-3, produced in E. coli; also called VIL-4D3; not shown: C-terminal Flag and 6xHis tags from vector pMEK222
binds: [1] | [2] | [3] | [4]

B3: 7F6 (VHH)
VHH: EVQLVESGGGLVQAGGSTRLTCLASGSISSINVIGWYRQAPGKQRELVAMIGRGEGANYGDFAKGRFTISRDNSKNTVYLQMNSLKPEDTAVYYCYADYEDRDSPFNGSWGQGTQVTVSS
notes: also called VIL-7F6; 'Wild type' 7F6; not shown: C-terminal Flag and 6xHis tags from vector pMEK222
binds: [2] | [5] | [3]

B4: 5G9 (VHH)
VHH: EVQLVESGGGLVQAGGSTRLTCKASGSIFNINSINVMAWYRQAPGKQRELVAIIGKGGGTNYADFVKGRFTISRDAAKNTVNLQMNSLKPEDTAVYYCYADYEDRDSPFNASWGQGTQVTVSS
notes: also called VIL-5G9; 'Wild type' 5G9; not shown: C-terminal Flag and 6xHis tags from vector pMEK222
binds: [2] | [5] | [3]

B5: ID-123V (VHH)
VHH: EVQLVESGGGLVQAGGSTRLTCKASGSISNINSINVMAWYRQAPGKGRELVAIIGKGGGTNYADFVKGRFTISRDAAKNTVYLQMNSLRPEDTAVYYCYADYEDHDSPHNASWGQGTQVTVSS
notes: E. coli-produced trans-selective 5G9 derivative; E. coli version of ID-142V (lacks E1D); also called 5G9 + F29S, Q47G, N82Y, K89R, R105H, F109H; not shown: C-terminal FLAG-6xHis
binds: [6]

Source: patent publication US20220380475A1 (SORRISO PHARMACEUTICALS, published 2022)
